# Results reported in the supplement of paper PMC12823440, “Inhibitors supercharge kinase turnover through native proteolytic circuits” (Nature, 2025).
# Protein sequences, listed by entry. Tags and fused reporters are not part of them. Lines headed by an entry give the natural chain unless they say otherwise; changes in a name come on top.
# UniProt O15530: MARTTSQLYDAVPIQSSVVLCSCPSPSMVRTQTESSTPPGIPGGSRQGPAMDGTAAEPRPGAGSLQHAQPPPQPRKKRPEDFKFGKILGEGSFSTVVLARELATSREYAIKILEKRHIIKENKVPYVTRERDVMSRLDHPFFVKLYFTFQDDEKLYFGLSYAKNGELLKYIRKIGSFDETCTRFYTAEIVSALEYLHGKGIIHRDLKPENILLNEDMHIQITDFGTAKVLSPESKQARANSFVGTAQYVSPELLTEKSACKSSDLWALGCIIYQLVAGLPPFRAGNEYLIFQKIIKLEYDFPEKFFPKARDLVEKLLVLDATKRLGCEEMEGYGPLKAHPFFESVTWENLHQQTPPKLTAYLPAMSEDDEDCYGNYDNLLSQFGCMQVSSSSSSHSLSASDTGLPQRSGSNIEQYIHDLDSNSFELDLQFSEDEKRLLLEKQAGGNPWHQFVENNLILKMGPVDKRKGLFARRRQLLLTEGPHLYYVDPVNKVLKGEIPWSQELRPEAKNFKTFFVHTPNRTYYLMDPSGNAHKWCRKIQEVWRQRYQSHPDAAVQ
# Counter-ions that a name gives are not always drawn. The list shows a part of the results. The calls rarely recur for the same compound in another form.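 In K562 cells expressing nanoluciferase-fused kinases, luminescence was recorded at 4 h intervals between 2 and 18 h, normalized as percent of control with DMSO at 100% and a positive control at 0%. A significant (2 sigma) signal drop marks a time point as decreased. The authors' rule for a hit is not shown and takes in more than the number of time points.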
# Biological target: PDPK1 (UniProt O15530)
# Assay: number of time points (of 5) at which kinase-Nluc abundance scored as decreased, DMSO-normalised (count); higher = more persistent destabilization
# Settings: K562; 2-18 h
row,SMILES,number of time points
1,Cc1cc(=O)oc2c(C=O)c(O)ccc12 (10 µM),0
2,Nc1nc(F)nc2c1ncn2[C@@H]1O[C@H](CO)[C@@H](O)[C@@H]1O [Fludarabine] (10 µM),0
3,CC(C)(C)c1cc(O)ccc1O (10 µM),0
4,COc1ccc(Cl)c(Nc2nc3ccccc3nc2NS(=O)(=O)c2cccc(NC(=O)C(C)(C)N)c2)c1 [Pilaralisib] (10 µM),0
5,Cc1ccc(CNc2ncnc3ccc(-c4ccc(CO)o4)cc23)o1 (10 µM),0
6,C=CC(=O)Nc1cccc(Nc2nc(Nc3ccc(N4CCN(C(C)=O)CC4)cc3OC)ncc2C(F)(F)F)c1 [Rociletinib] (10 µM),0
7,Nc1ncnc2c1c(-c1cccc(OCc3ccccc3)c1)cn2C1CC(CN2CCC2)C1 (stereo not drawn) (2.5 µM),0
8,Oc1cc(O)c2cc(O)c(-c3cc(O)c(O)c(O)c3)[o+]c2c1 [Delphinidin (chloride)] (10 µM),1
9,CCCS(=O)(=O)Nc1ccc(F)c(C(=O)c2c[nH]c3ncc(-c4ccc(Cl)cc4)cc23)c1F [Vemurafenib] (10 µM),0
10,COCCNc1nc2ccc(C#CC3(O)CCCCC3)cc2n1-c1ccnc(N)n1 (10 µM),0
11,CCC(C)N1c2ccccc2C(=O)N(C)c2cnc(Nc3ccc(C(=O)N4CCC(N5CCN(C)CC5)CC4)cc3OC)nc21 (stereo not drawn) (2.5 µM),0
12,Cc1cc(CN2CCN(c3c(Br)cnc4nc(-c5ccc(N6CCN(C)CC6)cc5)[nH]c34)CC2)no1 (2.5 µM),0
13,O=C(CSC1=NCCN1)NC1CCCCCC1 [ICCB-19 (hydrochloride)] (2.5 µM),0
14,FC(F)(F)c1ccc(CNc2ccc(Cc3c[nH]c4ncccc34)cn2)cc1 (10 µM),0
15,c1ccc(-c2[nH]ncc2-c2ccnc3ccccc23)nc1 (10 µM),0
16,CC#CC(=O)N1CC[C@@H](n2c(=O)n(-c3ccc(Oc4ccccc4)cc3)c3c(N)ncnc32)C1 [Tirabrutinib (hydrochloride)] (10 µM),0
17,CC1=C(C(=O)O)N2C(=O)[C@@H](NC(=O)[C@H](N)C3=CCC=CC3)[C@H]2SC1 [Cephradine] (10 µM),0
18,Cn1cc(-c2ccc3nnc(Sc4ccc5ncccc5c4)n3n2)cn1 (10 µM),0
19,CC(=O)c1c(C)cc2cccc(O)c2c1O [Nepodin] (10 µM),0

row,SMILES,number of time points
1,NCCNS(=O)(=O)c1cccc2c(Cl)cccc12 [A-3 (hydrochloride)] (10 µM),0
2,N#Cc1c(C2CCNCC2)cc(-c2c(O)cccc2OCC2CC2)nc1N [ACHP (Hydrochloride)] (10 µM),0
3,C[C@@H]1COCCN1c1cc(C2([S@@](C)(=N)=O)CC2)nc(-c2ccnc3[nH]ccc23)n1 [(S)-Ceralasertib] (10 µM),0
4,NC(=O)c1nc(Nc2ccccc2)sc1NC(=O)C1CCCCC1 (10 µM),0
5,Cc1cc(Nc2ncnc3ccc(NC4=NC(C)(C)CO4)cc23)ccc1Oc1ccn2ncnc2c1 [Tucatinib (hemiethanolate)] (2.5 µM),0
6,Cc1ccc(C(=O)Nc2ccc(Oc3cc4cnn(C)c4cc3-c3cn[nH]c3)c(F)c2)c(=O)n1-c1ccc(F)cc1 [Merestinib dihydrochloride] (2.5 µM),0
7,O=C1Nc2ccc(C(=O)c3ccco3)cc2C1=Cc1cc(Cl)c(O)c(Cl)c1 (2.5 µM),3
8,C=CC(=O)Nc1cc(Nc2ncc(Cl)c(-c3c[nH]c4ccccc34)n2)c(OC)cc1N(C)CCN(C)C [Mutant EGFR inhibitor] (2.5 µM),3
9,C[C@@H](c1ccc(-c2ccccc2)c(F)c1)c1cc(NC(=N)N2CCOCC2)on1 [Rimacalib] (10 µM),0
10,Cn1nccc1Nc1nccc(-c2ccn([C@H](CO)c3ccc(Cl)c(F)c3)c(=O)c2)n1 [Ravoxertinib hydrochloride] (10 µM),0
11,Oc1cc2c(cc1O)C(Cc1cccc3ccccc13)NCC2 (stereo not drawn) (10 µM),0
12,O=C1N[C@@H](Cc2c[nH]c3ccccc23)C(=O)N2CCC[C@@H]12 [Brevianamide F] (10 µM),0
13,CCS(=O)(=O)Nc1ccc2[nH]c(O)c(C(=Nc3ccc(CN4CCCCC4)cc3)c3ccccc3)c2c1 [Hesperadin] (2.5 µM),4
14,O=C1NC(=O)/C(=C/c2ccc3nccnc3c2)S1 (10 µM),0
15,CNc1nc(Nc2ccc(C(=O)N3CCOCC3)cc2OC)nc2[nH]cc(Cl)c12 (2.5 µM),0
16,CC#CC(=O)N1CC[C@@H](n2c(=O)n(-c3ccc(Oc4ccccc4)cc3)c3c(N)ncnc32)C1 [Tirabrutinib] (10 µM),0
17,CCc1c(C(=O)NNC(=O)C(O)c2cc(F)cc(F)c2)ccc(O)c1C (stereo not drawn) (10 µM),0
18,CNC(=O)c1ccc(C)c(-n2c(C)cc(OCc3ccc(F)cc3F)c(Br)c2=O)c1 (10 µM),0
19,O=C(NOCC(O)CO)c1cc(Br)c(F)c(F)c1Nc1ccc(I)cc1F (stereo not drawn) (2.5 µM),0

# Fetched one by one from the entries so far:
row,SMILES,number of time points
12,O=C1N[C@@H](Cc2c[nH]c3ccccc23)C(=O)N2CCC[C@@H]12 [Brevianamide F] (10 µM),0
2,Nc1nc(F)nc2c1ncn2[C@@H]1O[C@H](CO)[C@@H](O)[C@@H]1O [Fludarabine] (10 µM),0
